{"source": "PubChem BioAssay AID686943 (Drosophila RNAi Screening Center, 2013)", "aim": "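Fly genes whose loss alters ERK activation after insulin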 (primary screen)", "system": "Drosophila S2R+ haemocyte-like cells expressing YFP-tagged ERK (Rolled)", "knock-down reagent": "long dsRNA against Drosophila genes", "treatment": "insulin stimulation versus unstimulated cells; dose and duration not given", "measurement": "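Antibody staining for doubly phosphorylated ERK divided by ERK-YFP signal, as plate z-scores, in insulin-treated and untreated cells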", "direction": "replicate 1, z-score of dpERK with insulin and replicate 2, z-score of dpERK with insulin: higher = more active ERK per ERK-YFP after insulin", "note": "The screen tested about 23,000 reagents; below is a random part of those that have a named target and a result. 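Extra replicates exist only for a retested subset of genes; insulin dose and duration not given; both raised and lowered dpERK matter.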 Further read-outs or replicates are left out here. Not given: the amount of reagent, the time to read-out."}
{"target gene": "CG31007", "amplicon": "DRSC14029", "replicate 1, z-score of dpERK with insulin": -0.29, "replicate 2, z-score of dpERK with insulin": -0.17}
{"target gene": "CG1737", "amplicon": "DRSC19771", "replicate 1, z-score of dpERK with insulin": -1.13, "replicate 2, z-score of dpERK with insulin": -1}
{"target gene": "oc (ocelliless)", "amplicon": "DRSC18808", "replicate 1, z-score of dpERK with insulin": 0.74, "replicate 2, z-score of dpERK with insulin": 0.92}
{"target gene": "CG10205", "amplicon": "DRSC05979", "replicate 1, z-score of dpERK with insulin": -1.4, "replicate 2, z-score of dpERK with insulin": -0.48}
{"target gene": "CG4053", "amplicon": "DRSC15538", "replicate 1, z-score of dpERK with insulin": 0.7, "replicate 2, z-score of dpERK with insulin": -1.32}
{"target gene": "CG7408", "amplicon": "DRSC10841", "replicate 1, z-score of dpERK with insulin": 0.09, "replicate 2, z-score of dpERK with insulin": -0.77}
{"target gene": "Vajk4", "amplicon": "DRSC06589", "replicate 1, z-score of dpERK with insulin": 0.6, "replicate 2, z-score of dpERK with insulin": 0.07}
{"target gene": "Vajk4", "amplicon": "DRSC07003", "replicate 1, z-score of dpERK with insulin": 0.22, "replicate 2, z-score of dpERK with insulin": 0.48}
{"target gene": "CG1635", "amplicon": "DRSC15131", "replicate 1, z-score of dpERK with insulin": 0.54, "replicate 2, z-score of dpERK with insulin": 0.15}
{"target gene": "CG31139", "amplicon": "DRSC21393", "replicate 1, z-score of dpERK with insulin": 0.41, "replicate 2, z-score of dpERK with insulin": -0.78}
{"target gene": "mRpL44 (mitochondrial ribosomal protein L44)", "amplicon": "DRSC12306", "replicate 1, z-score of dpERK with insulin": 1.45, "replicate 2, z-score of dpERK with insulin": -0.32}
{"target gene": "CG13613", "amplicon": "DRSC14616", "replicate 1, z-score of dpERK with insulin": 0.42, "replicate 2, z-score of dpERK with insulin": 0.34}
{"target gene": "sha (shavenoid)", "amplicon": "DRSC06331", "replicate 1, z-score of dpERK with insulin": 0.55, "replicate 2, z-score of dpERK with insulin": -0.24}
{"target gene": "Nplp3 (Neuropeptide-like precursor 3)", "amplicon": "DRSC09944", "replicate 1, z-score of dpERK with insulin": 1.54, "replicate 2, z-score of dpERK with insulin": 1.63}
{"target gene": "CG10019", "amplicon": "DRSC00279", "replicate 1, z-score of dpERK with insulin": -2.08, "replicate 2, z-score of dpERK with insulin": -3.57}
{"target gene": "Pex12 (Peroxin 12)", "amplicon": "DRSC00622", "replicate 1, z-score of dpERK with insulin": -0.68, "replicate 2, z-score of dpERK with insulin": -0.92}
{"target gene": "LKRSDH (Lysine ketoglutarate reductase/saccharopine dehydrogenase)", "amplicon": "DRSC03015", "replicate 1, z-score of dpERK with insulin": 0.34, "replicate 2, z-score of dpERK with insulin": 0.42}

An excerpt from above, limited to “replicate 2, z-score of dpERK with insulin”:
CG7408 [DRSC10841]	-0.77
Vajk4 [DRSC06589]	0.07

Continued.
{"target gene": "glob1 (globin 1)", "amplicon": "DRSC16959", "replicate 1, z-score of dpERK with insulin": 0.59, "replicate 2, z-score of dpERK with insulin": 0.64}
{"target gene": "l(3)05822 (lethal (3) 05822)", "amplicon": "DRSC16202", "replicate 1, z-score of dpERK with insulin": -1.35, "replicate 2, z-score of dpERK with insulin": 0.07}
{"target gene": "tim (timeless)", "amplicon": "DRSC00841", "replicate 1, z-score of dpERK with insulin": 0.04, "replicate 2, z-score of dpERK with insulin": 1.05}
{"target gene": "CG32812", "amplicon": "DRSC18478", "replicate 1, z-score of dpERK with insulin": -0.26, "replicate 2, z-score of dpERK with insulin": 1.2}
{"target gene": "CG43069", "amplicon": "DRSC05752", "replicate 1, z-score of dpERK with insulin": 0.54, "replicate 2, z-score of dpERK with insulin": 1.08}
{"target gene": "CG10910", "amplicon": "DRSC06007", "replicate 1, z-score of dpERK with insulin": 0.9, "replicate 2, z-score of dpERK with insulin": -0.1}
{"target gene": "CG15653", "amplicon": "DRSC04244", "replicate 1, z-score of dpERK with insulin": -1.36, "replicate 2, z-score of dpERK with insulin": -0.54}
{"target gene": "CG12698", "amplicon": "DRSC19485", "replicate 1, z-score of dpERK with insulin": -0.24, "replicate 2, z-score of dpERK with insulin": 0.38}
{"target gene": "melt (melted)", "amplicon": "DRSC11367", "replicate 1, z-score of dpERK with insulin": 0.72, "replicate 2, z-score of dpERK with insulin": 0.48}
{"target gene": "Tango5 (Transport and Golgi organization 5)", "amplicon": "DRSC18023", "replicate 1, z-score of dpERK with insulin": 0.02, "replicate 2, z-score of dpERK with insulin": 0.22}
{"target gene": "CG3679", "amplicon": "DRSC19346", "replicate 1, z-score of dpERK with insulin": -0.02, "replicate 2, z-score of dpERK with insulin": 0.35}
{"target gene": "Nup62 (Nucleoporin 62kD)", "amplicon": "DRSC06970", "replicate 1, z-score of dpERK with insulin": -0.09, "replicate 2, z-score of dpERK with insulin": -0.06}
{"target gene": "mael (maelstrom)", "amplicon": "DRSC11894", "replicate 1, z-score of dpERK with insulin": 0.08, "replicate 2, z-score of dpERK with insulin": 0.1}
{"target gene": "lbk (lambik)", "amplicon": "DRSC07178", "replicate 1, z-score of dpERK with insulin": 0.14, "replicate 2, z-score of dpERK with insulin": 0.29}
